For 3 substances, binding results are on record in article PMC12170339, “Cryo-EM structure of the NDH–PSI–LHCI supercomplex from Spinacia oleracea” (Nature Structural & Molecular Biology, 2025).

These are yes or no findings as the source states them, for the method shown. Binding seen in cells or lysates may run through a third protein. Binding can be weak; no strength is given.

Holding throughout (assay): cryo-EM structure; single-particle cryo-EM of the endogenous NDH–PSI–LHCI-2 supercomplex co-purified from spinach stromal lamellae in t-PCCαM; buffer A: 30 mM HEPES pH 7.8, 2 mM MgCl2, 2 mM KCl, 0.5 mM Na2-EDTA, 100 mM NaCl, 2 mM DTT, 0.04% t-PCCαM; 38,385 particles; 3.0–3.3 Å; both purified
The target in one assay is T1, NdhK (S. oleracea, UniProt Q9M3M0 1-227).
T1 construct: NdhK, SubA module of chloroplast NDH, S. oleracea; source: purified from spinach (S. oleracea) leaves as part of the NDH–PSI–LHCI-2 supercomplex
T1 sequence (looked up): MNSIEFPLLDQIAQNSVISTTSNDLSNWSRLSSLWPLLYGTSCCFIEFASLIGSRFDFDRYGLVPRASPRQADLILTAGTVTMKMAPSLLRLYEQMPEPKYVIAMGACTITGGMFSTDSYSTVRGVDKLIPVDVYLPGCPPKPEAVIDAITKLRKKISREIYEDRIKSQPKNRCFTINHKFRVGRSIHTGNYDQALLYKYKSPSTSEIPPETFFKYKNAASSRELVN

In another assay the target is T2, NdhH (S. oleracea, UniProt Q9M3I5 1-393).
T2 construct: NdhH, SubA module of chloroplast NDH, S. oleracea; source: purified from spinach (S. oleracea) leaves as part of the NDH–PSI–LHCI-2 supercomplex
T2 sequence (looked up): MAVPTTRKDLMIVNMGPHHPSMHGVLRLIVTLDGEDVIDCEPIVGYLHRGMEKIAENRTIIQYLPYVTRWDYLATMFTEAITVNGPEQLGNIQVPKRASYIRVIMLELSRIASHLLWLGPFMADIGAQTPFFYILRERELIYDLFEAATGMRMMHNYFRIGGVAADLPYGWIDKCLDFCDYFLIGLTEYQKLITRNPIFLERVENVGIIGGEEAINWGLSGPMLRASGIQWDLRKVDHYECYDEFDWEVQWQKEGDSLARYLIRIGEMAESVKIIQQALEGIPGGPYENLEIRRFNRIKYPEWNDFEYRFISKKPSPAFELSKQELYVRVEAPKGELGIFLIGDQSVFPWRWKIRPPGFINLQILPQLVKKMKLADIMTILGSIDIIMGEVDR

The target in another assay is T3, NdhI (S. oleracea) (UniProt Q9M3I7).
T3 sequence: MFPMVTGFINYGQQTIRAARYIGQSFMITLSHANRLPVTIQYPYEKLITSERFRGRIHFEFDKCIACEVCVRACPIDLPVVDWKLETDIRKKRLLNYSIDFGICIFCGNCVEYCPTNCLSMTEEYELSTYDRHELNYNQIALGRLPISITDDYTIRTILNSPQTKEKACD

In a further assay the target is T4, NdhJ (S. oleracea) (UniProt Q9M3M1).
T4 sequence: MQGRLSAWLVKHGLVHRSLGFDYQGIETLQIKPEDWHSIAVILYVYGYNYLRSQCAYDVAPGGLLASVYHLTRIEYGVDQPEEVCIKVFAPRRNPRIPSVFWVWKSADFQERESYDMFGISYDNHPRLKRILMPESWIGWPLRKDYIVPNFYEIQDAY

In a further assay the target is T5, NdhB (S. oleracea).
T5 sequence: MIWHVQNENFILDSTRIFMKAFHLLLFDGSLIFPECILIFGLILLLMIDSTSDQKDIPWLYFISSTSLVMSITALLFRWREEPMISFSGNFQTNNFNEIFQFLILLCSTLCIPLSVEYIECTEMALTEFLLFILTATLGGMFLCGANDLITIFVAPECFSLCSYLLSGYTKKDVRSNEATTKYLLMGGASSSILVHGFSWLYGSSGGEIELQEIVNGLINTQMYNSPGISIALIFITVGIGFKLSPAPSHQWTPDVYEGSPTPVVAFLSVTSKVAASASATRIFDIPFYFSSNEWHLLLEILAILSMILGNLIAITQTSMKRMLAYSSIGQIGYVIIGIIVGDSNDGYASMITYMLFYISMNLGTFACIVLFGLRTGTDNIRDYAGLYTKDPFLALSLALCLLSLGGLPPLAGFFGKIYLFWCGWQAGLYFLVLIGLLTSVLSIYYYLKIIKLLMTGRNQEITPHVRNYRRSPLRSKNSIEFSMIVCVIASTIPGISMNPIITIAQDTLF

In another assay the target is T6, NdhD (S. oleracea) (UniProt Q9M3J0).
T6 sequence: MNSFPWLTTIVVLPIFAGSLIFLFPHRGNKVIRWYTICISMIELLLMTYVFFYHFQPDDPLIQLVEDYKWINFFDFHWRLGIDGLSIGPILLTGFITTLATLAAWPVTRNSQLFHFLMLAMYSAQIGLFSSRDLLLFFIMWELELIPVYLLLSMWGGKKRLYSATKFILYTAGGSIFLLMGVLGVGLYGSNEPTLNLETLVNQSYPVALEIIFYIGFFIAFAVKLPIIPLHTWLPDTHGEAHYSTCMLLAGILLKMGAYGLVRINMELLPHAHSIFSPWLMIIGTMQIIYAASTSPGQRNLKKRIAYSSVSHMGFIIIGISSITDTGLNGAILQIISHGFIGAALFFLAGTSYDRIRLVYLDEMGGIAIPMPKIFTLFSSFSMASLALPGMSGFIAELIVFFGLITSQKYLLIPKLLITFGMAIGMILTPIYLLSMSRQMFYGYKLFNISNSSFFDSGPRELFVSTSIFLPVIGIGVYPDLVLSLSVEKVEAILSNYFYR

For the substance NdhU (S. oleracea), the binding entry with NdhK, with NdhH, with NdhI (S. oleracea) and with NdhJ (S. oleracea) was “binds” each time.
Take PnsB1 (S. oleracea): the binding result in the assay with NdhH, in the assay with NdhB (S. oleracea) and with NdhD (S. oleracea) was “binds” in each case.
On to PnsB5 (S. oleracea), for which the binding result with NdhD (S. oleracea) is on record as “binds”.
